Experimental data as given in doi:10.1101/2022.05.10.491326.
Results are given in words; binding and its absence hold for the method and conditions named. Binding seen in cells or lysates may run through a third protein. These calls come from enrichment with a bait or labelling near it, and not all partners need be listed. For some of these results: A no says only that the protein was not detected with the bait.

Experiments:
Assay in all cases: affinity purification with mass spectrometry
[1] = molecular target: EIF4E5-PTP (Trypanosoma brucei) (UniProt Q38B99)
[2] = molecular target: EIF4E6-PTP (Trypanosoma brucei) (UniProt Q57V43)
[3] = molecular target: EIF4E2-PTP (Trypanosoma brucei) (UniProt Q387Q8)
[4] = molecular target: EIF4E3-PTP (Trypanosoma brucei) (UniProt Q383A4)

Row | Substance | binding [1] | binding [2] | binding [3] | binding [4]
1 | EIF4E3 (from UniProt Q383A4) | binds | no binding |  | 
2 | SLBP2 (from UniProt Q57WX0) |  |  | binds | 
3 | Tb927.8.4560 (from UniProt Q57UZ5) | binds |  |  | 
4 | Tb927.10.14700 (from UniProt Q388D4) |  | binds |  | binds
5 | putative guanosine monophosphate reductase (Tb927.5.2080) (from UniProt Q57ZS7) (enzyme) |  |  |  | binds
